Laboratory results: patent publication US20080181901A1
These are yes or no findings as the source states them, for the method shown. For some assays here: In cells and extracts the contact can be indirect. Some binding calls cover weakened binding; strength is not graded here. For some assays here: Where a sequence is shown, tags or fusion partners need not be part of it.

Sequences of proteins named here, by UniProt entry; tags and fusion partners are left off. Residues count along the entry.
UniProt P97370, residues 120-258: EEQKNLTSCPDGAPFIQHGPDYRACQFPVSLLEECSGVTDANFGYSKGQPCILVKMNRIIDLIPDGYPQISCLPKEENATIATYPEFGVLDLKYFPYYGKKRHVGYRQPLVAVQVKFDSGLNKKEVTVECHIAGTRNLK

Legend:
[1] = target: Na,K-ATPase β1 subunit amino acids 110-273, yeast two-hybrid library clone (mouse) (UniProt P14094); assay: yeast two-hybrid screen, MONaKA as bait
[2] = target: Na,K-ATPase β3 subunit amino acids 120-258, yeast two-hybrid library clone (mouse) (UniProt P97370); assay: yeast two-hybrid screen, MONaKA as bait
[3] = target: Myc-tagged Na,K-ATPase β1 subunit C-terminal fragment (amino acids 110-273) (mouse) (UniProt P14094); assay: co-immunoprecipitation from transfected tsA201 cells, Western blot
[4] = target: Myc-tagged Na,K-ATPase β3 subunit C-terminal fragment (amino acids 120-258) (mouse) (UniProt P97370); assay: as above
[5] = target: Myc-tagged Na,K-ATPase β1 subunit C-terminal fragment (amino acids 110-273) (mouse) (UniProt P14094); assay: co-immunoprecipitation from transfected tsA201 cells, both directions
[6] = target: Myc-tagged Na,K-ATPase β3 subunit C-terminal fragment (amino acids 120-258) (mouse) (UniProt P97370); assay: as above
[7] = target: Myc-tagged full-length Na,K-ATPase β1 subunit (mouse) (UniProt P14094); assay: as above
[8] = target: Myc-tagged full-length Na,K-ATPase β1 subunit (mouse) (UniProt P14094); assay: co-immunoprecipitation from transfected tsA201 cells, anti-HA or anti-Myc IP, Western blot

Measured: binding

B1: mouse full-length MONaKA, yeast two-hybrid bait in pGBKT7 (protein)
chain: MAFMEKPPAGKVLLDDTVPLTAAVEASQSLQSHTEYIIRVQRGISAENSWQIVRRYSDFDLLNNSLQITGLSLPLPPKKLIGNMDREFIAERQRGLQNYLNVIMANHVLSNCELLKKFLDPNNYSANYTEIALQQVSMFFRSEPKWEVVEPLKDIGWRIRKKYFLMKIKNQPKERLVLSWADLGPDKYLSDKDFQCLIKLLPSCVHPYIYRVTFATASESSALLIRAFNEKGTLKDLIYKAKPKDPFLKKYCNPKKTQGLELQQIKTYGRQILEALKFLHDKGFPYGHLHAANVMLDGNTCRLLDLENSLLGLPSFYRSYFTQFRKINTLESVDVHCFGHLLYEMTYGRPPDSVPVDSFPPASSLAVVAVLESTLSCEACKNGMPTVSRLLQMPLFSDVLLTTSEKPQFKIPTKLKEALRIAKECIEKRLTEEQKQIHQHRRLTRAQSHHGSEEERKRRKILARKKSKRSAVENSEEQPVKHSNSNNSGSGASSPLTSPSSPTPPSTAGLSSALPPPPPPPPPPPPPAGPSPTSATEMPAPFLPQPVNGVNRGALLSSIQNFQKGTLRKAQTCDHSAPKIG
binds: [1] | [2]

B2: HA-tagged full-length MONaKA (mouse), expressed in tsA201 cells (protein, not shown: small tags and cut ends)
chain: B1 chain
not listed: [1] | [2]
binds: all other assays above
